{"sequences": {"note": "Amino acid sequences for entries named in this document (tags omitted). A change or cut given only in a name is not applied to a line headed by its entry.", "UniProt P18054": "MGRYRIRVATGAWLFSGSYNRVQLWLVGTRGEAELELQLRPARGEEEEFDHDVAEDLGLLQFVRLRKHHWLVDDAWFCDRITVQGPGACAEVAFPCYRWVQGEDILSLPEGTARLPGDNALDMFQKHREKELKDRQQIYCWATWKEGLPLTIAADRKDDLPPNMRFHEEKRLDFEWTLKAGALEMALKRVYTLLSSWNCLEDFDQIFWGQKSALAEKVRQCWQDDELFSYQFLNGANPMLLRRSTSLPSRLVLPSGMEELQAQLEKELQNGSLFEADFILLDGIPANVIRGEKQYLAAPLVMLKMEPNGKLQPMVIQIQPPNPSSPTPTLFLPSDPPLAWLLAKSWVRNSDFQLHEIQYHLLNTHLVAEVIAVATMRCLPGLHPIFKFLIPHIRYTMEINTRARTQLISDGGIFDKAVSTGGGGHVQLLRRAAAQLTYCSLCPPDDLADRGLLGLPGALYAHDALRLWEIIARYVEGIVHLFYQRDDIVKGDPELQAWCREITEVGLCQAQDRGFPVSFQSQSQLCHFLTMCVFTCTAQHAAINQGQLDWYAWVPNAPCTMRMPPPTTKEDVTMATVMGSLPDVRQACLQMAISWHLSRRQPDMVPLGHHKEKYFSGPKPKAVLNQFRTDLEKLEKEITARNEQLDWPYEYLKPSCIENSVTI"}, "source": "PubChem BioAssay AID1671190", "about": "(National Center for Advancing Translational Sciences (NCATS), 2021)", "note": "Values joined by “and” are separate entries in the source; they are usually repeats but may differ in a detail not shown here. Equal entries are not always repeated. Hit rate of the full screen: of about 580,000 compounds, about 6,100 (1.1%) were called active. This list was built around the results that the source calls inconclusive (neither active nor inactive); the mix of calls is not that of the screen. Calls come from the whole dose curve; as a rule, active = well fitted inhibition curve with a large enough effect; inconclusive = small, poorly fitted or top-dose-only effect, or another doubt; inactive = no such curve, though single readings can be large or run the other way. Potencies of inconclusive entries are doubtful fits and often do not repeat. % is set by controls: 0 for no effect and ±100 for the full control effect; potency is the fitted concentration of half-maximal effect."}
{"target": "Polyunsaturated fatty acid lipoxygenase ALOX12 (Homo sapiens) (UniProt P18054)", "experiment": "Primary qHTS assay for inhibitors of human arachidonate 12S-lipoxygenase (ALOX12): Round 2", "conditions": "purified 12hLO, xylenol orange hydroperoxide absorbance; activity change, negative = inhibition: at 108 µM (top of the series) unless noted", "in_short": "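Purified human 12hLO at 150 nM in 25 mM Hepes, 0.01% Triton X-100, pH 7.0, preincubated 15 min at room temperature with compound. Reaction started with 40 uM arachidonic acid, 30 min at room temperature. Hydroperoxide measured by Fe-xylenol orange, 573/405 nm absorbance ratio.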"}
{"smiles": "Cc1cc2oc(=O)cc(CSc3nnnn3C3CC3)c2cc1C(C)C", "Potency": "inconclusive: 126 µM [inhibitor, single point]"}
{"smiles": "COc1ccc(Cn2c(SCC(=O)N(C)Cc3ccccc3)nc3ccccc32)cc1", "Potency": "inconclusive: 56.2 µM [inhibitor, partial curve, poor fit]"}
{"smiles": "O=C(Nc1ccc2c(c1)OCCO2)C(CCc1ccccc1)N1CCN(C/C=C/c2ccccc2)CC1", "note": "(stereo unspecified)", "Potency": "inconclusive: 44.7 µM [inhibitor, partial curve, poor fit]"}
{"smiles": "CC(C)(C)C1CCc2oc3ccc(NS(=O)(=O)c4ccc(C(=O)O)cc4)cc3c2C1", "note": "(stereo unspecified)", "Potency": "inconclusive: 50.1 µM [inhibitor, partial curve, poor fit]"}
{"smiles": "C/C=C/C(=O)N1CC2(CC(c3cccc(NC(=O)/C(C)=C/C)c3)=NO2)C[C@H]1C(N)=O", "note": "(stereo partly specified)", "Potency": "inactive"}
{"smiles": "CC(=O)N1CCc2c(sc(NC(=O)c3cccc(N4C(=O)CCC4=O)c3)c2C(N)=O)C1", "Potency": "inconclusive: 79.4 µM [inhibitor, partial curve, poor fit]"}
{"smiles": "NC1(C(=O)O)CCC1", "Potency": "active: 1.41 µM and inconclusive: 11.2 µM [inhibitor, partial curve, poor fit]"}
{"smiles": "O=C(Nc1nc2c(F)cc(F)cc2s1)C1CC(=O)N(Cc2ccco2)C1", "note": "(stereo unspecified)", "Potency": "inconclusive: 63.1 µM [inhibitor, partial curve, poor fit]"}
{"smiles": "N#CC1=C(N)n2ncnc2NC1c1ccccc1Cl", "note": "(stereo unspecified)", "Potency": "inconclusive: 31.6 µM [inhibitor, single point]"}
{"smiles": "CC1(C)CSC(C)(C)C(=O)N1", "Potency": "inactive"}
{"smiles": "CC1CCN(S(=O)(=O)c2ccc3c(ccc(=O)n3CC(=O)Nc3cccc(F)c3)c2)CC1", "Potency": "inconclusive: 141 µM [inhibitor, partial curve, poor fit]"}
{"smiles": "O=C(NCc1ccc(Cl)cc1)C(=O)Nc1cccc2[nH]ccc12", "Potency": "inconclusive: 3.16 µM [inhibitor, full curve, poor fit]"}
{"smiles": "Cc1ccc(-c2noc([C@@H]3C[C@H](NS(=O)(=O)c4ccc(C)cc4)CN3C)n2)cc1", "Potency": "inconclusive: 7.94 µM [inhibitor, full curve, poor fit]"}
{"smiles": "Cc1ccc(NC(=O)c2cc(S(=O)(=O)NCCc3ccc(Cl)cc3)ccc2F)cc1", "Potency": "inconclusive: 89.1 µM [inhibitor, partial curve, poor fit]"}
{"smiles": "COc1ccc([C@@H]2CC(=O)C3=C(C2)Nc2[nH][nH]c(=O)c2[C@H]3c2ccccc2C(F)(F)F)cc1OC", "Potency": "inconclusive: 44.7 µM [inhibitor, partial curve, poor fit]"}
{"smiles": "Cc1ccccc1C(=O)Nc1c(C(=O)N2CCN(Cc3ccccc3)CC2)oc2ccccc12", "Potency": "inactive"}
{"smiles": "COC(=O)[C@]1(C)N[C@H](CN(C)S(=O)(=O)c2ccc(OC(F)(F)F)cc2)[C@@H]2C(=O)N(Cc3ccccc3)C(=O)[C@@H]21", "Potency": "inconclusive: 56.2 µM [inhibitor, partial curve, poor fit]"}
{"smiles": "COc1ccccc1OCC(=O)NNc1c2ccccc2nc2ccccc12", "Potency": "inactive"}
{"smiles": "Cc1nc2c(c(-c3ccc(O)cc3)n1)CN(Cc1cncs1)CCC2", "Potency": "inactive"}
{"smiles": "O=[N+]([O-])c1ccc(Nc2ccc(N3CCOCC3)cc2)c([N+](=O)[O-])c1", "Potency": "inactive"}
{"smiles": "CCNc1nc(NCC)n2c(SC(C(=O)Nc3cc(C)ccc3C)c3ccccc3)nnc2n1", "note": "(stereo unspecified)", "Potency": "inactive"}
{"smiles": "Cc1ccc(S(=O)(=O)N[C@H](C(=O)OCC(=O)N2N=C(c3ccc(Cl)cc3)CC2c2ccco2)C(C)C)cc1", "note": "(stereo partly specified)", "Potency": "inconclusive: 56.2 µM [inhibitor, partial curve, poor fit]"}
{"smiles": "CCCCNC(=S)Nc1ccccc1Cc1ccccc1", "Potency": "inconclusive: 50.1 µM [inhibitor, partial curve, poor fit]"}
{"smiles": "COc1ccc(-c2csc(Nc3cccc(C)n3)n2)cc1OC", "Potency": "inconclusive: 89.1 µM [inhibitor, single point] and inconclusive: 50.1 µM [inhibitor, partial curve, poor fit]"}
{"smiles": "COc1ccc(NC(C)C(=O)Nc2ccc(C(C)(C)C)cc2)cc1Cl", "note": "(stereo unspecified)", "Potency": "inactive"}
{"smiles": "CC1(c2ccc3c(c2)OCCO3)NC(=O)N(CC(=O)c2cn(CCC#N)c3ccccc23)C1=O", "note": "(stereo unspecified)", "Potency": "inconclusive: 25.1 µM [inhibitor, partial curve, poor fit]"}
{"smiles": "c1c2c(cc3sc(N4CCOCC4)nc13)OCO2", "Potency": "inconclusive: 44.7 µM [inhibitor, partial curve, poor fit]"}
{"smiles": "CC1=C(C(=O)N2CCN(c3cccc(Cl)c3)CC2)C2(CCCCC2)OC1=O", "Potency": "inconclusive: 112 µM [inhibitor, single point]"}
{"smiles": "COc1ccccc1CCC(=O)N1CCC2(CC1)N=C(c1cccc(Br)c1)NO2", "Potency": "inactive"}
{"smiles": "COc1ccc(C(=O)Nc2cc(-n3cnnn3)ccc2N2CCCCC2)cc1Br", "Potency": "inactive"}
{"smiles": "COc1cc(Br)cc(C2C3=C(CCCC3=O)N(c3ccc(F)cc3)C3=C2C(=O)CCC3)c1O", "Potency": "inconclusive: 70.8 µM [inhibitor, partial curve, poor fit]"}
{"smiles": "Cc1ccc(-c2cc(C(=O)Nc3cccc(S(=O)(=O)N(C)C)c3)c3ccccc3n2)o1", "Potency": "active: 6.31 µM"}
{"smiles": "Cc1cc(C)n(-c2ccc([N+](=O)[O-])cc2)n1", "Potency": "inactive"}
{"smiles": "Cc1ccccc1NC(=O)COc1coc(CN2CCCc3ccccc32)cc1=O", "Potency": "inconclusive: 28.2 µM [inhibitor, partial curve]"}
{"smiles": "CCSc1nnc(-c2cc(Br)ccc2N=Cc2c(C)[nH]n(-c3ccccc3)c2=O)c(=O)[nH]1", "Potency": "inconclusive: 44.7 µM [inhibitor, single point]"}
{"smiles": "Cc1ccc(CN2CCN(/N=C/c3sccc3C)CC2)c(C)c1", "Potency": "inactive"}
{"smiles": "CCS(=O)(=O)Nc1cccc(C2=NN(S(=O)(=O)c3ccccc3)C(c3cccs3)C2)c1", "note": "(stereo unspecified)", "Potency": "inconclusive: 0.251 µM [inhibitor, full curve, poor fit]"}
{"smiles": "O=[N+]([O-])c1ccc(COc2ccccc2CN2CCCC2)cc1", "Potency": "inconclusive: 39.8 µM [inhibitor, partial curve, poor fit]"}
{"smiles": "Cc1[nH]n(-c2cccc([N+](=O)[O-])c2)c(=O)c1-c1ccccc1", "Potency": "inconclusive: 56.2 µM [inhibitor, partial curve, poor fit]"}
{"smiles": "CC(C)c1ccc2c(c1)CCCN2C(=O)c1cnc2c(cnn2C(C)C)c1", "Potency": "inactive"}
{"smiles": "COc1cc(C)c(Sc2cnc(NC(=O)c3ccc(CNC(C)C(C)C)cc3)s2)cc1C(=O)N1CCN(C(C)=O)CC1", "note": "(stereo unspecified)", "Potency": "inactive"}
{"smiles": "Cc1ccc2c(c1)C(c1ccccc1)N(C(=O)c1c(F)cccc1Cl)CC(=O)N2", "note": "(stereo unspecified)", "Potency": "inconclusive: 50.1 µM [inhibitor, partial curve, poor fit]"}
{"smiles": "COc1ccc(OCC(O)Cn2c(NCCO)nc3c2c(=O)n(C)c(=O)n3C)cc1", "note": "(stereo unspecified)", "Potency": "inconclusive: 112 µM [inhibitor, single point] and inconclusive: 25.1 µM [inhibitor, single point]"}
{"smiles": "CC(C)c1ccc(S(=O)(=O)N2CCN(C(C)C(=O)Nc3ccccc3-c3ccccc3)CC2)cc1", "note": "(stereo unspecified)", "Potency": "inactive"}
{"smiles": "O=c1cc(CN2CCc3ccccc32)nc2sccn12", "Potency": "inconclusive: 39.8 µM [inhibitor, partial curve, poor fit]"}
{"smiles": "O=C(CCc1nc2sc3c(c2c(=O)[nH]1)CCCC3)NCCc1ccc(Cl)cc1", "Potency": "inconclusive: 44.7 µM [inhibitor, partial curve, poor fit]"}
{"smiles": "Cc1ccc2c(=O)cc(C(=O)Nc3ccc(S(=O)(=O)Nc4ncccn4)cc3)oc2c1C", "Potency": "inconclusive: 63.1 µM [inhibitor, partial curve, poor fit]"}
{"smiles": "CC1(C)CC(=O)C2=C(C1)OC(N)=C(C#N)C2c1ccc(C(F)(F)F)cc1", "note": "(stereo unspecified)", "Potency": "inconclusive: 44.7 µM [inhibitor, partial curve, poor fit]"}
{"smiles": "Cc1cc(C)n(/N=C/c2ccc(O)cc2)c(=O)c1C#N", "Potency": "inactive"}
{"smiles": "O=C(C[C@H]1CC[C@@H]2[C@H](COC[C@@H](O)CN2Cc2ccc(Cl)cc2)O1)NCCc1ccccc1", "Potency": "inconclusive: 44.7 µM [inhibitor, partial curve, poor fit]"}
{"smiles": "Cc1[nH]n(-c2ccc(Cl)cc2)c(=O)c1C(=O)c1ccccc1", "Potency": "inconclusive: 141 µM [inhibitor, partial curve, poor fit]"}
{"smiles": "O=Cc1cccc(Oc2ncccn2)c1", "Potency": "inactive"}
{"smiles": "COC(=O)[C@]1(C)N[C@H](CN(C)S(=O)(=O)c2ccc(OC)cc2)[C@@H]2C(=O)N(C)C(=O)[C@@H]21", "Potency": "inconclusive: 56.2 µM [inhibitor, partial curve, poor fit]"}
{"smiles": "CNC(=S)N/N=C/c1ccc(-c2cccc(C(=O)O)c2)o1", "Potency": "inconclusive: 63.1 µM [inhibitor, partial curve, poor fit]"}
{"smiles": "CCOc1ccc(NC(=O)c2c(NC(=O)Cc3ccccc3)sc3c2CCCCC3)cc1", "Potency": "inconclusive: 44.7 µM [inhibitor, partial curve, poor fit]"}
{"smiles": "Fc1ccc(OC2CN(Cc3cccnc3)C2)c(F)c1", "activity change, negative = inhibition": "inactive: 10.3% [at 12.5 µM]"}
{"smiles": "COc1ccc(S(=O)(=O)N2CCOCC2)cc1NC(=O)CN1CCCc2ccccc21", "Potency": "inconclusive: 15.8 µM [inhibitor, single point]"}
{"smiles": "COC(=O)C1C2CCC(C2)C1C(=O)OCC(=O)c1ccc(-c2ccccc2)cc1", "note": "(stereo unspecified)", "Potency": "inconclusive: 0.501 µM [inhibitor, full curve, poor fit]"}
{"smiles": "O=C(NC1CC1)c1ccc2c(c1)CC(=O)N2Cc1ccc(F)cc1", "Potency": "inactive"}
{"smiles": "CCOc1ccc(NS(=O)(=O)c2ccc3c(c2)CCCN3C(=O)C2CCC2)cc1", "Potency": "inactive"}
{"smiles": "COc1ccc(-c2ccc3nc(-c4ccccc4C)oc3c2)c(OC)c1OC", "Potency": "inconclusive: 20 µM [inhibitor, full curve]"}
